Test results from paper PMC5719072.
Results are given in words; binding and its absence hold for the method and conditions named. For some of these results: In cells and extracts the contact can be indirect. Some entries that bind do so weakly or less than the wild type. For some of these results: Where a sequence is shown, tags or fusion partners need not be part of it.

Amino acid sequences for entries named in this document (tags omitted).
UniProt P35222: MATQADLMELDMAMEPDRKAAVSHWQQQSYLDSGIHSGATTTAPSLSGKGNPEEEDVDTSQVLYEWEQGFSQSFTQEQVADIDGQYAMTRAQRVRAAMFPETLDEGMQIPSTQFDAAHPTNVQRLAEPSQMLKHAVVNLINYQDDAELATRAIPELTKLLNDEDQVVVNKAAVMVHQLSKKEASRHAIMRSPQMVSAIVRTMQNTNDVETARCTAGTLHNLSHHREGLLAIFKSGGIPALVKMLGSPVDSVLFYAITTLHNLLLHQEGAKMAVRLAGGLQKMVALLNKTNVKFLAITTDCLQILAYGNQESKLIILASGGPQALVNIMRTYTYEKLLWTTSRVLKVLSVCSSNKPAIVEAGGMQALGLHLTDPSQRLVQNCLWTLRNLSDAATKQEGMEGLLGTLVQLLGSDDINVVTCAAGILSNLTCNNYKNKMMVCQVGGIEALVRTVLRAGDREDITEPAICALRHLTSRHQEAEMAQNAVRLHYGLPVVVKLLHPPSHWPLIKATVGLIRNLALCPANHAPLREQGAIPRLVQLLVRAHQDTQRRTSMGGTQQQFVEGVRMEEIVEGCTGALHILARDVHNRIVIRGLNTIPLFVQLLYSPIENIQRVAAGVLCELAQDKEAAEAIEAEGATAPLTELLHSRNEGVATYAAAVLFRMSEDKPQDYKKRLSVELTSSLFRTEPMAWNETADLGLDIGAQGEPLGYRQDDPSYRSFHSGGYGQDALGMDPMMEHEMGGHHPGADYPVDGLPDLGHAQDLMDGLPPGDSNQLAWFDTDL
UniProt P47929: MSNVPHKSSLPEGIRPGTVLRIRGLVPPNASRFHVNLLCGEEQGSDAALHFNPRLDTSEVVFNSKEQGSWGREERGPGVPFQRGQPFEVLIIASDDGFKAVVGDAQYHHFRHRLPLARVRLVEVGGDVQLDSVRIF

How the values were obtained:
[1] = target: β-catenin (human (endogenous in HaCaT)) (UniProt P35222); assay: co-IP; immunoprecipitation of E-cadherin, α-catenin or β-catenin from HaCaT whole cell extracts, blot for galectin-7 (supplementary Figs S2a-c)
[2] = target: β-catenin (human (endogenous in HaCaT)) (UniProt P35222); assay: proximity ligation; Duolink In situ Red kit on HaCaT cells, endogenous proteins; for galectin-7/E-cadherin also after lactose washes
[3] = target: T1, extracellular domain of mouse E-cadherin fused to human IgG1 Fc fragment (mouse) (UniProt P09803); assay: pull-down; in vitro binding assay: purified proteins mixed in 100 μl lysis buffer overnight at 4 °C, E-cad-Fc captured on protein-A-Sepharose 3 h at 4 °C, washes with PBS - 0.5% NP40 and PBS; both purified
T1 sequence: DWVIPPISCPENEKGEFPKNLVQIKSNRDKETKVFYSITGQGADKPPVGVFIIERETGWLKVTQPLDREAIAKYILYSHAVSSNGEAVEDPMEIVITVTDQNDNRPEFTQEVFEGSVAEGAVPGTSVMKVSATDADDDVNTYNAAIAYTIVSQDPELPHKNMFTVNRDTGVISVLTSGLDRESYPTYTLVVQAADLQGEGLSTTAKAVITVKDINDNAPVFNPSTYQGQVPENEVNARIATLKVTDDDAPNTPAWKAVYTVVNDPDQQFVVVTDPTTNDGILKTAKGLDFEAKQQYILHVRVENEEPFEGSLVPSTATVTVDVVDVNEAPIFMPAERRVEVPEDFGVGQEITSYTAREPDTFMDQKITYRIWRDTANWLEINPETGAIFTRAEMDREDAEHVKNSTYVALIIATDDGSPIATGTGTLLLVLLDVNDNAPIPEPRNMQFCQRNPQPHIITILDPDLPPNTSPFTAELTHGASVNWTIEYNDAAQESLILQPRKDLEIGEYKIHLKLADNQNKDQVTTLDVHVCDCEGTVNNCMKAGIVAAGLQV

[4] = target: galectin-7 (human (endogenous in HaCaT)) (UniProt P47929); assay: co-IP; immunoprecipitation of galectin-7 from whole cell extracts of confluent HaCaT cells, blots for E-cadherin, α-catenin and β-catenin; also with 150 mM β-lactose, 300 mM galactose, 300 mM glucose, 15 mM LacNAc or 15 mM sucrose, and after deglycosylation of the lysate in non-denaturing …

Substance: galectin-7 (from UniProt P47929 1-136)
- binding [1]: binds
- binding [2]: binds

Substance: recombinant human galectin-7 (from UniProt P47929 1-136)
- binding [3]: binds

Substance: β-catenin (from UniProt P35222 1-781)
- binding [4]: binds
